Data published in ChEMBL document CHEMBL4296182, “CO-ADD screening of NIH NCI Diversity Set V”.
The list shows a part of the results. Results with a measured potency or affinity are listed apart.

These compounds were tested on Pseudomonas aeruginosa. Conditions: Concentration 20 uM; ASSAY_TEST Inhibition of Bacterial Growth; detection method Absorption (OD600); MEDIA CAMHB; plate type 384well; NBS; CORNING #3640; time 18 hr.

Structure (SMILES)	Inhibition [%]
CCC1=[N+]([O-])[N+]([O-])=C(c2ccccc2)/C1=N/O	-2.3
Cc1ccc(C2C=CC(C#N)=CN2Cc2ccccc2)cc1 (stereo not given)	24.62
Sc1nc2ccccc2c2ccccc12	-6.52
FC(F)(F)c1cccc(-c2nc3nc(Cl)c(Cl)nc3[nH]2)c1	8.32
O=C1C2C3C=CC(O3)C2C(=O)N1Nc1ccccc1 (stereo not given)	4.25
O=C(Nc1cccc(Cl)c1)Nn1cnnc1	-3.53
Cc1c(Cl)cccc1Nc1ncccc1C(=O)OCC(O)CO (stereo not given) [CLONIXERIL]	14.92
CC(C)NC(=O)Nc1cccc(Cl)c1	13.44
CC(=O)Oc1c(C)c(OC(C)=O)c2c(c1C(C)=O)OC1CC(=O)C(C(C)=O)=C(O)C21C (stereo not given)	26.67
Cc1oc2c(c(C)nn2-c2ccccc2)c(=O)c1Cl	15.68
CC(=O)Nc1ccc(Cc2nc3c(=O)n(C)c(=O)n(C)c3[nH]2)cc1	9.43
CCOC(=O)Cc1cc(O)c2cc(C)ccc2n1	10.86
Nc1n[nH]c(CO)n1.O=C(O)CO	5.84
c1ccc2[nH]c(CCCCCc3nc4ccccc4[nH]3)nc2c1	-10.64
CSc1ccc(NC(=O)Nc2ccccc2C(N)=O)cc1	13.42
Clc1ccc2nc3ccccc3cc2c1	4.5
Cc1ccc(S(=O)(=O)N(C)C)cc1[N+](=O)[O-]	-3.98
C=C1CC2(OC1=O)c1ccccc1CCc1ccccc12	0.65
Nc1ccc2c(c1)nnn2-c1ccccc1	19.24
S=C(Nc1ccccc1)c1ccccn1	13.6
N#Cc1nnn(-c2ccc(Cl)cc2)c1N	8.41
O=C(CC1(O)CCCCC1)OC1CCCC1	-31.15

Structure (SMILES)	Inhibition [%]
NC(=O)CCC(C(=O)O)N1C(=O)C2C3CCC(C3)C2C1=O (stereo not given)	-5.69
CCOC(=O)c1cc[nH]c1CC(=O)NC	1.8
O=c1cc(-c2ccccc2)[nH]c2cc(-c3ccco3)nn12	8.25
CC(C)COc1nc2c(c(=O)n(C)c(=O)n2C)n1C	8.19
COc1ccc(N/C=C2\C(=O)CCc3c2oc2cc(Cl)c(O)c(Cl)c32)cc1	11.35
O=C(O)c1ccccc1C(=O)Nc1ccccc1[N+](=O)[O-]	3.23
O=C(O)C1OCC2(CO1)COC(C(=O)O)OC2 (stereo not given)	10.49
Cc1cc(N2CCN(C)CC2)n2nc(-c3ccc(Cl)cc3)nc2n1	14.82
CCCNC(=O)c1ccc(Cl)cc1Cl	4.07
OCCN1CCSC1=S	19.31
NC(CC(=O)Nc1cc(C(F)(F)F)ccc1Cl)=NO	4.66
Cn1c([N+](=O)[O-])cnc1N1CCN(c2nncs2)C1=O	3.62
CN1N=C(N)c2cn(C3OC(COP(=O)(O)O)C(O)C3O)c3ncnc1c23 (stereo not given)	8.37
CC1=CC(C)(C)Nc2ccc(Cc3ccc4c(c3)C(C)=CC(C)(C)N4)cc21	-9.63
CCN(CC)C(=O)Cn1ccc(NC(C)=O)nc1=O	6.41
CN(C)C(=S)/N=c1\ssc(=S)n1Cc1ccco1	5.51
C#C[C@]1(O)CC[C@H]2[C@@H]3CCC4=Cc5oncc5C[C@]4(C)[C@H]3CC[C@@]21C [DANAZOL]	20.34
NC(=O)SCC(=O)Nc1ccccc1C(=O)O	2.58
COc1cc2c(cc1OC)C(=O)Cc1ccc3c(c1CN(C)CC2)OCO3	30.96
CCn1c2ccccc2nc2cc3c(cc21)c(Cl)c(=O)c1ccccc13	22.92
CCOC(=O)c1cnn2c(SC)ncnc12	1.79
CCn1c2ccccc2c2c3ncc4cccn4c3ccc21	2.22

Structure (SMILES)	Inhibition [%]
Cc1c(CCO)c(=O)n2n1CCCC2	-24.3
CCn1c(=O)n(C)c2c(=O)n(C)c(=O)n(C)c21	17.4
c1coc(CNc2[nH]cnc3nncc2-3)c1	11.43
CCOC(=O)c1c[nH]nc1O	18.77
CC(C)C(=O)c1ccc(O)c(O)c1	-17.05
CN(CCC#N)c1ccc(/C=C(\C#N)c2cccc(C(F)(F)F)c2)cc1	7.3
CC(C1=C(CCN(C)C)Cc2ccccc21)c1ccccn1.O=C(O)/C=C\C(=O)O (stereo not given) [DIMETHINDENE MALEATE]	22.05
Oc1ccccc1-c1nc2c3ccccc3c3ccccc3c2[nH]1	22.28
NC(=N\c1ccc(N)cc1)/C(N)=N/c1ccc(N)cc1	16.29
CCCCn1c(OC(=S)N(CC)CC)cc(C)nc1=S	-2.01
Cn1cnc([N+](=O)[O-])c1Sc1nc[nH]n1	10.16
Nc1cc(Nc2ccc(Br)cc2)nc(N)n1	-13.25
Nc1cc(N)nc(CS)n1	19.05
C=CCNC(S)=NCC	18.41
OC1COC(OCc2ccccc2)C(O)C1O (stereo not given)	5.53
CCSc1ncc(CO)c(N)n1	-0.19
O=C1C(Br)=Cc2cccc3cccc1c23	2.26
CCOC(=O)C(=O)Cc1cccnn1	18.91
CNc1ccc(/N=N/c2cc[n+]([O-])cc2C)cc1C	11.82
O=S(=O)(c1ccc2c(c1)CCCN2)N1CCC[C@H]2CCCC[C@@H]21	6.71
C1COCCN1.O=C(O)C(C=C(Cl)Cl)N1CCOCC1 (stereo not given)	8.65
CCCn1cnc2c(S)nc(N)nc21	12.17

Copied from the results shown (seven entries):
Structure (SMILES)	Inhibition [%]
CCn1c(=O)n(C)c2c(=O)n(C)c(=O)n(C)c21	17.4
c1coc(CNc2[nH]cnc3nncc2-3)c1	11.43
CCOC(=O)c1c[nH]nc1O	18.77
CC(C)C(=O)c1ccc(O)c(O)c1	-17.05
CN(CCC#N)c1ccc(/C=C(\C#N)c2cccc(C(F)(F)F)c2)cc1	7.3
CC(C1=C(CCN(C)C)Cc2ccccc21)c1ccccn1.O=C(O)/C=C\C(=O)O (stereo not given) [DIMETHINDENE MALEATE]	22.05
Oc1ccccc1-c1nc2c3ccccc3c3ccccc3c2[nH]1	22.28

(continued)

Structure (SMILES)	Inhibition [%]
CC(C)(c1cc(Cl)c(O)c(CN2CCOCC2)c1)c1cc(Cl)c(O)c(CN2CCOCC2)c1	12.85
Cc1cc(N2CCOCC2)nc(N2CCOCC2)n1	5.3
CCOc1ccc(NC(=O)N(O)C2(C#N)CCCCC2)cc1	21.11
O=C(Nc1ccc(C2=NCCCN2)cc1)Nc1ccc(C2=NCCCN2)cc1	26.29
Nc1nc(N)nc(-c2ccccc2-c2nc(N)nc(N)n2)n1	1.51
O=C1Nc2ccccc2C1(c1ccc(O)cc1)c1ccc(O)cc1 [OXYPHENISATINE]	16.79
CCc1oc2ccccc2c1C(=O)c1cc(Br)c(O)c(Br)c1 [BENZBROMARONE]	1.35
Oc1ccccc1/N=C/c1c(O)ccc2ccccc12	7.65
O[C@@H](c1cc(-c2ccc(C(F)(F)F)cc2)nc(C(F)(F)F)c1)[C@H]1CCCCN1	9.48
CCOC(=O)c1c(N=C(S)NC)sc2c1CCCC2	5.91
O=C(c1ccccc1)c1ccccc1C(=O)c1ccccc1	8.27
NS(=O)(=O)c1cc2c(cc1Cl)NC(CC1CCCC1)NS2(=O)=O (stereo not given) [CYCLOPENTHIAZIDE]	-3.46
C=C(C)C(=O)Nc1ccc(NC(C)C)cc1	8.99
Cc1cccc(C)c1NC(=O)Nc1ccc(S(N)(=O)=O)cc1	24.19
c1ccc(Nc2cccc3c(Nc4ccccc4)cccc23)cc1	21.7
CC1=NC2=CC=CC3=NC(C(Cl)(Cl)Cl)=NC(=N1)N23	29.35
CC(=O)O.COc1ccc2nccc(/C=C/c3ccnc4ccc(OC)cc34)c2c1	14.57
Cc1cc(=O)n2c3c(c4c(cc13)c(CN(C)C)cc(=O)n4C)OC2.Cl	16.74
CCOC(=O)N1CCN(Cc2c(O)ccc3ccccc23)CC1	17.88
CN(C)C(=O)OCC1COc2ccccc2O1 (stereo not given)	10.66
O=C(C(Cl)Cl)N1CC2CCC(CC2)C1	-21.94
O=c1[nH]nc(-c2cc(-c3ccccc3)nc3ccccc23)o1	5.98

Structure (SMILES)	Inhibition [%]
CN(C)c1ccc(/C=C/c2ccc3ccccc3n2)cc1	-0.15
CC(C)NC(=O)c1ccc(C(C)C)cc1	17.9
CCCCCC(=O)N1CCCCC1	16.11
C[C@@]1(c2ccccc2)O[C@@H]2C[C@H]3[C@@H]4CCC5=CC(=O)C=C[C@]5(C)[C@@]4(F)[C@@H](O)C[C@]3(C)[C@]2(C(=O)CO)O1 [AMCINAFIDE]	12.73
CCSc1nc(C)c(C)c(O)n1	15.41
O=C(/C=C/c1ccccc1)CC(c1ccccc1)N1CCOCC1 (stereo not given)	14.74
Nc1ccn(C2OC(CCl)C(O)C2O)c(=O)n1 (stereo not given)	16.62
CCOCc1cc(O)nc(SC)n1	23.12
C=CCN(CC=C)C(=O)Nc1cc(OC)ccc1OC	6.27
COC(=O)C1=CC(=O)N2CCN=C2S1	-6.18
CC1(C)SC(C)(C)N(C=O)C1C(=O)O (stereo not given)	3.14
CCCCNC(=O)Nc1ccccc1CC	-8.63
FC(F)(F)c1cccc(OCC2CN=C(S)O2)c1 (stereo not given)	-3.56
COC1OCC(O)C(NC(=O)N(C)N=O)C1O (stereo not given)	-13.74
COc1cccc(NC(S)=Nc2ccc(O)cc2)c1	14.19
CCOC(=O)Nc1cc2c(c(N)n1)N=C(c1ccccc1)CN2	29.95
CC(C)NCC1CCc2cc(CO)c([N+](=O)[O-])cc2N1 (stereo not given) [OXAMNIQUINE]	6.47
Cc1nc([N+](=O)[O-])cn1-c1nc2ccccn2c1[N+](=O)[O-]	13.8
CC1(C)CC(Nc2ccc(Nc3ccccc3)cc2)CC(C)(C)N1	9.92
COc1cc2c(O)cc(C(=O)O)c(-c3cc(OC)c(OC)c(OC)c3)c2cc1OC	14.45
CSc1ccc2c(c1)C(N1CCN(C)CC1)Cc1ccccc1S2.O=C(O)/C=C\C(=O)O (stereo not given)	12.2
CSC(=O)NC(=O)NC(=O)c1ccc([N+](=O)[O-])cc1	11.58
